Measured values: PubChem BioAssay AID540256 (National Center for Advancing Translational Sciences (NCATS), 2011)
Among all 300,000 compounds or so, about 3,700 (1.2%) were called active. Inconclusive results, whose numbers are uncertain, are shown with a selection of clear calls. The call rests on the fitted dose curve; tested in HEK293 cells. Potencies beside an inconclusive call are fits to weak or partial responses and may not hold up.

Experiment: qHTS for Inhibitors of binding or entry into cells for Lassa Virus; further: nearly all actives have a fitted effect of over 50% in size
Details: Lassa virus pseudotype entry inhibition, cell reporter; activity change, negative = inhibition: at 37.9 µM (top of the series) unless noted
On the % scale 0 is the no-effect control and ±100 the full control effect; potency means the concentration at half of the fitted maximal effect.

Row | Structure (SMILES) | Potency | activity change, negative = inhibition
1 | O=C(Nc1ccc(Br)cc1)NC1CCCCCCC1 | inconclusive: 31.6 µM [inhibitor, single point] | –
2 | Cc1ccc(C)c(NC(=O)CN2CCSc3ccc(S(=O)(=O)N4CCCC4)cc32)c1 | inconclusive: 2.51 µM [activator, full curve] | –
3 | Cc1ccc(C(C(=O)NCc2ccco2)N(C(=O)CNC(=O)c2cccs2)c2ccc(C)cc2C)cc1 (configuration not stated) | inactive | –
4 | CC(=O)c1c(C(C)=O)c(C)n(-c2nc(-c3ccccc3)c(C)s2)c1C | inconclusive: 8.91 µM [inhibitor, partial curve, poor fit] | –
5 | COc1ccccc1N1CCN(c2ncnc3c2nnn3C)CC1 | inconclusive: 35.5 µM [inhibitor, single point] | –
6 | O=C(NC(=S)N1CCN(c2ccc(F)cc2)CC1)C12CC3CC(CC(C3)C1)C2 | inactive | –
7 | NC(=O)c1nn(-c2ccccc2)nc1N | inactive | –
8 | CC(C)=NNc1nc2sc3c(c2c(=O)[nH]1)CC(C)(C)OC3 | active: 7.08 µM | –
9 | Cc1ccccc1S(=O)(=O)Cc1ccc(C(=O)N2CCN(c3cccc(Cl)c3)CC2)o1 | inconclusive: 1.78 µM [inhibitor, partial curve, poor fit] | –
10 | COc1ccc(-n2ncc3c(NCC4CCCO4)ncnc32)cc1 (configuration not stated) | inconclusive: 29.1 µM [inhibitor, single point] | –
11 | COc1ccc(C(C)NC(=S)NC2CCCC2)cc1OC (configuration not stated) | inactive | –
12 | CCS(=O)(=O)N1Cc2ccccc2CC1C(=O)N(C)CC(=O)Nc1ccc(F)c(F)c1F (configuration not stated) | inactive | –
13 | COc1ccc(NC(=O)C2=CC(c3ccco3)=NS(=O)(=O)N2C)cc1 | inactive | –
14 | O=C(NCC1CCCO1)c1nn2c(C(F)(F)F)cc(-c3ccc(Br)o3)nc2c1Br (configuration not stated) | inactive | –
15 | CSc1nc(C)cc(SCCO)n1 | inconclusive: 6.51 µM [inhibitor, single point] | –
16 | COC(=O)C1=C(C(=O)OC)[C@@H]2Nc3ccccc3[C@@]23C[C@@H](C(=O)OC)N=C3N1 | inconclusive: 0.841 µM [inhibitor, full curve, poor fit] | –
17 | CCOc1ccccc1N1CC(C(=O)Nc2ccccc2N2CCOCC2)CC1=O (configuration not stated) | inactive | –
18 | COc1cc(C(=O)NCC(c2cccs2)N(C)C)cc(Cl)c1OC(C)C (configuration not stated) | inconclusive: 29.1 µM [inhibitor, single point] | –
19 | CCN1CCN(Cc2c(O)ccc3c(C)c(-c4ccc(OC)cc4)c(=O)oc23)CC1 | inactive | –
20 | COc1ccccc1C1c2c(-c3ccc(Cl)cc3)n[nH]c2C(=O)N1c1ccc(C)cc1 (configuration not stated) | inconclusive: 35.5 µM [inhibitor, partial curve, poor fit] | –
21 | COc1ccc2c(C)nc(Nc3nc(C)c(C)c(=O)[nH]3)nc2c1 | inconclusive: 16.4 µM [inhibitor, partial curve, poor fit] | –
22 | N#Cc1ccc(-c2cccs2)nc1SCC(=O)Nc1cccc(C(F)(F)F)c1 | inactive | –
23 | COc1ccc(/C=N/Nc2ncc(Br)cn2)c(OC)c1 | inconclusive: 16.4 µM [inhibitor, single point] | –
24 | COc1ccc(Cn2nnnc2CN2CCC(O)(c3ccccc3F)CC2)cc1 | inconclusive: 12.6 µM [inhibitor, partial curve, poor fit] | –

Row | Structure (SMILES) | Potency | activity change, negative = inhibition
25 | CN1CCc2cc(O)c(O)cc2C(c2ccccc2)C1 (configuration not stated) | inconclusive: 0.0461 µM [activator, full curve, poor fit] | –
26 | CN(C)c1ccc(CNC(=O)C2CCN(c3nc4ccccc4[nH]3)CC2)cc1 | inactive | –
27 | C#CCn1cnc2c(cnn2-c2ccc(C)c(C)c2)c1=O | inactive | –
28 | O=C(NC1CCCCC1)C1CC(=O)N(c2cccc([N+](=O)[O-])c2)C1 (configuration not stated) | inconclusive: 0.562 µM [inhibitor, partial curve, poor fit] | –
29 | CS(=O)(=O)N1CCN(c2ccccc2NC(=O)c2ccc(Br)o2)CC1 | inconclusive: 16.4 µM [inhibitor, partial curve, poor fit] | –
30 | O=C(Nc1ccc2c(c1)OCO2)c1cccc(Cl)c1 | inconclusive: 1.26 µM [activator, single point] | –
31 | CCCc1nc2ccccc2c(NC(=O)CN(CC)CC)c1CC | inconclusive: 0.562 µM [activator, full curve, poor fit] | –
32 | CC(CSc1nnnn1-c1ccccc1)Cn1c(N2CCN(C)CC2)nc2c1c(=O)[nH]c(=O)n2C (configuration not stated) | – | inconclusive: 3.81% [activator]
33 | COc1ccc(C(C(=O)NC2CCCC2)N(C(=O)c2snc(C(N)=O)c2N)c2ccccc2OC)cc1OC (configuration not stated) | inconclusive: 35.5 µM [inhibitor, single point] | –
34 | CCCCN1/C(=C/c2ccc3ccccc3[n+]2CC)Sc2ccccc21 | active: 2.24 µM | –
35 | CC(C)c1ccc(CN(C(=O)c2cc3ccccc3oc2=O)C2CCS(=O)(=O)C2)cc1 (configuration not stated) | inactive | –
36 | Cc1cc(C(F)(F)F)n2ncc(-c3ccc(F)cc3)c2n1 | inactive | –
37 | CCCN(Cc1ccccc1)C(=S)Nc1cccc(C(F)(F)F)c1 | inconclusive: 29.1 µM [inhibitor, single point] | –
38 | Cn1c(-c2nonc2N)nc2cnccc21 | inconclusive: 15.8 µM [activator, single point] | –
39 | CCOC(=O)N1CCC(Nc2c(-c3ccc(C)cc3)c(=O)c2=O)CC1 | inconclusive: 0.82 µM [activator, full curve, poor fit] | –
40 | Cc1ccc(S(=O)(=O)NCc2ccncc2)cc1C | inconclusive: 3.98 µM [inhibitor, full curve, poor fit] | –
41 | CC12CCC(O)CC1CCC1C2CCC2(C)C(C3=CC(=O)OC3)C(O)CC12O (configuration not stated) | active: 3.16 µM | –
42 | CCN(CCn1cccn1)Cc1nc(-c2ccccc2)no1 | inconclusive: 0.891 µM [inhibitor, partial curve, poor fit] | –
43 | CC(=O)Nc1ccc2nc(-c3ccc(Br)o3)[nH]c2c1 | inconclusive: 35.5 µM [inhibitor, single point] | –
44 | COc1ccccc1OCC(=O)OCC(=O)Nc1ncc(Cl)cc1Cl | inactive | –
45 | COc1ccc(-c2ccc(CN3C(C(C)C)C(=O)N(Cc4cn(CC5CCCCC5)nn4)CCS3(=O)=O)cc2)cn1 (configuration not stated) | inconclusive: 28.1 µM [inhibitor, partial curve, poor fit] | –
46 | CCOc1ccc(/C=C/C(=O)c2ccccc2)cc1OC | inactive | –
47 | COc1ccc(CNc2nc(-c3ccco3)nn2S(=O)(=O)c2ccc(Cl)cc2)cc1OC | inactive | –
48 | COc1ccc(Cl)cc1NC(=O)c1cc2c(=O)n3ccccc3nc2s1 | inactive | –

Row | Structure (SMILES) | Potency | activity change, negative = inhibition
49 | O=C(CSc1cn(CC(=O)N2CCCC2)c2ccccc12)Nc1ccc(Cl)cc1 | inactive | –
50 | CCN1CCN(C(=O)CN(CC)S(=O)(=O)c2ccc(F)cc2)CC1 | inactive | –
51 | COc1ccc(CCNC(=O)c2ccc(Cl)c(S(=O)(=O)N(C)c3ccccc3)c2)cc1 | inconclusive: 11.2 µM [inhibitor, partial curve, poor fit] | –
52 | c1cc2c3c(cccc3c1)C(N1CCOCC1)=N2 | inconclusive: 2.24 µM [inhibitor, single point] | –
53 | CCc1cc(C(=O)N2CCN(c3ncccn3)CC2)sc1C | inconclusive: 11.2 µM [inhibitor, partial curve, poor fit] | –
54 | CC(C)(C)c1ccc(-c2nc(C#N)c(NCCCn3ccnc3)o2)cc1 | inconclusive: 28.2 µM [inhibitor, single point] | –
55 | Cc1ccc(C(=O)N2CCN(c3ccc(Cl)cc3)CC2)cc1 | inactive | –
56 | COc1cc2c(-c3cccc(Cl)c3)nc3c(c(C)nn3-c3ccccc3)c2cc1OC | inactive | –
57 | COc1ccc(Cn2c(CCC(=O)NCc3ccc(Cl)cc3)nc3cccnc32)cc1 | inactive | –
58 | Cc1cc(C)nc(Nc2nc(C)c3cc4c(cc3n2)OCO4)n1 | inactive | –
59 | COc1ccc(-c2cn(-c3ccc(C)cc3)c(=O)n2CC(=O)Nc2ccc(OC)cc2OC)cc1 | inconclusive: 32.6 µM [inhibitor, single point] | –
60 | O=C(Cc1ccc(Cl)cc1)N/N=C/c1c(Cl)cccc1Cl | inconclusive: 15.8 µM [activator, partial curve, poor fit] | –
61 | CCCCCCCC(=O)NNC(=O)Cc1ccccc1 | inactive | –
62 | CC1(C)Cc2c(sc(NC(=O)c3ccc(C(=O)c4ccccc4)cc3)c2C(N)=O)C(C)(C)N1 | inconclusive: 35.5 µM [inhibitor, single point] | –
63 | COc1ccccc1OCC(=O)Nc1cc(NC(=O)COc2ccccc2OC)cc(C(=O)O)c1 | inactive | –
64 | Cc1cc(C(=O)COC(=O)Cc2n[nH]c(=O)c3ccccc23)c(C)n1CC(F)(F)F | – | inconclusive: 11.4% [activator]
65 | Cc1cc(NC(=O)CSc2nc3cc(C(=O)NCCCOC(C)C)ccc3c(=O)n2Cc2ccco2)no1 | inconclusive: 7.94 µM [inhibitor, partial curve, poor fit] | –
66 | COc1ccc(NC(=O)Cn2c(SCc3ccc(C)cc3)nc3cccnc32)cc1OC | inconclusive: 0.316 µM [activator, full curve, poor fit] | –
67 | CSc1ccc(N2C(=O)NC3(CCCCC3)C2=O)cc1 | inactive | –
68 | O=[N+]([O-])c1ccc(/C=N/n2c(COc3ccccc3)n[nH]c2=S)cc1 | inconclusive: 2.91 µM [inhibitor, partial curve, poor fit] | –
69 | N=c1c2ccccc2nc2n1CCCCCCCCCCC2 | inconclusive: 17.8 µM [inhibitor, partial curve, poor fit] | –
70 | COc1ccc(NC(=O)c2sc3nc4c(cc3c2N)CN(Cc2ccccc2)CC4)c(OC)c1 | inactive | –
71 | Cc1ccc(Nc2nc(NCc3ccco3)c3ccccc3n2)cc1 | active: 2.82 µM | –
72 | Cc1ccccc1OCC(O)Cn1c2ccccc2c2ccccc21 (configuration not stated) | inconclusive: 4.11 µM [inhibitor, full curve, poor fit] | –

From no. 51 up to 71, as listed above:
Row | Structure (SMILES) | Potency | activity change, negative = inhibition
51 | COc1ccc(CCNC(=O)c2ccc(Cl)c(S(=O)(=O)N(C)c3ccccc3)c2)cc1 | inconclusive: 11.2 µM [inhibitor, partial curve, poor fit] | –
52 | c1cc2c3c(cccc3c1)C(N1CCOCC1)=N2 | inconclusive: 2.24 µM [inhibitor, single point] | –
53 | CCc1cc(C(=O)N2CCN(c3ncccn3)CC2)sc1C | inconclusive: 11.2 µM [inhibitor, partial curve, poor fit] | –
54 | CC(C)(C)c1ccc(-c2nc(C#N)c(NCCCn3ccnc3)o2)cc1 | inconclusive: 28.2 µM [inhibitor, single point] | –
55 | Cc1ccc(C(=O)N2CCN(c3ccc(Cl)cc3)CC2)cc1 | inactive | –
56 | COc1cc2c(-c3cccc(Cl)c3)nc3c(c(C)nn3-c3ccccc3)c2cc1OC | inactive | –
57 | COc1ccc(Cn2c(CCC(=O)NCc3ccc(Cl)cc3)nc3cccnc32)cc1 | inactive | –
58 | Cc1cc(C)nc(Nc2nc(C)c3cc4c(cc3n2)OCO4)n1 | inactive | –
59 | COc1ccc(-c2cn(-c3ccc(C)cc3)c(=O)n2CC(=O)Nc2ccc(OC)cc2OC)cc1 | inconclusive: 32.6 µM [inhibitor, single point] | –
60 | O=C(Cc1ccc(Cl)cc1)N/N=C/c1c(Cl)cccc1Cl | inconclusive: 15.8 µM [activator, partial curve, poor fit] | –
61 | CCCCCCCC(=O)NNC(=O)Cc1ccccc1 | inactive | –
62 | CC1(C)Cc2c(sc(NC(=O)c3ccc(C(=O)c4ccccc4)cc3)c2C(N)=O)C(C)(C)N1 | inconclusive: 35.5 µM [inhibitor, single point] | –
63 | COc1ccccc1OCC(=O)Nc1cc(NC(=O)COc2ccccc2OC)cc(C(=O)O)c1 | inactive | –
64 | Cc1cc(C(=O)COC(=O)Cc2n[nH]c(=O)c3ccccc23)c(C)n1CC(F)(F)F | – | inconclusive: 11.4% [activator]
65 | Cc1cc(NC(=O)CSc2nc3cc(C(=O)NCCCOC(C)C)ccc3c(=O)n2Cc2ccco2)no1 | inconclusive: 7.94 µM [inhibitor, partial curve, poor fit] | –
66 | COc1ccc(NC(=O)Cn2c(SCc3ccc(C)cc3)nc3cccnc32)cc1OC | inconclusive: 0.316 µM [activator, full curve, poor fit] | –
67 | CSc1ccc(N2C(=O)NC3(CCCCC3)C2=O)cc1 | inactive | –
68 | O=[N+]([O-])c1ccc(/C=N/n2c(COc3ccccc3)n[nH]c2=S)cc1 | inconclusive: 2.91 µM [inhibitor, partial curve, poor fit] | –
69 | N=c1c2ccccc2nc2n1CCCCCCCCCCC2 | inconclusive: 17.8 µM [inhibitor, partial curve, poor fit] | –
70 | COc1ccc(NC(=O)c2sc3nc4c(cc3c2N)CN(Cc2ccccc2)CC4)c(OC)c1 | inactive | –
71 | Cc1ccc(Nc2nc(NCc3ccco3)c3ccccc3n2)cc1 | active: 2.82 µM | –
